Reference: PMC9985596
Results are given in words; binding and its absence hold for the method and conditions named. In cells and extracts the contact can be indirect. Some entries that bind do so weakly or less than the wild type.

The chains behind the UniProt entries cited, without tags or fusion partners.
UniProt Q9H1A4: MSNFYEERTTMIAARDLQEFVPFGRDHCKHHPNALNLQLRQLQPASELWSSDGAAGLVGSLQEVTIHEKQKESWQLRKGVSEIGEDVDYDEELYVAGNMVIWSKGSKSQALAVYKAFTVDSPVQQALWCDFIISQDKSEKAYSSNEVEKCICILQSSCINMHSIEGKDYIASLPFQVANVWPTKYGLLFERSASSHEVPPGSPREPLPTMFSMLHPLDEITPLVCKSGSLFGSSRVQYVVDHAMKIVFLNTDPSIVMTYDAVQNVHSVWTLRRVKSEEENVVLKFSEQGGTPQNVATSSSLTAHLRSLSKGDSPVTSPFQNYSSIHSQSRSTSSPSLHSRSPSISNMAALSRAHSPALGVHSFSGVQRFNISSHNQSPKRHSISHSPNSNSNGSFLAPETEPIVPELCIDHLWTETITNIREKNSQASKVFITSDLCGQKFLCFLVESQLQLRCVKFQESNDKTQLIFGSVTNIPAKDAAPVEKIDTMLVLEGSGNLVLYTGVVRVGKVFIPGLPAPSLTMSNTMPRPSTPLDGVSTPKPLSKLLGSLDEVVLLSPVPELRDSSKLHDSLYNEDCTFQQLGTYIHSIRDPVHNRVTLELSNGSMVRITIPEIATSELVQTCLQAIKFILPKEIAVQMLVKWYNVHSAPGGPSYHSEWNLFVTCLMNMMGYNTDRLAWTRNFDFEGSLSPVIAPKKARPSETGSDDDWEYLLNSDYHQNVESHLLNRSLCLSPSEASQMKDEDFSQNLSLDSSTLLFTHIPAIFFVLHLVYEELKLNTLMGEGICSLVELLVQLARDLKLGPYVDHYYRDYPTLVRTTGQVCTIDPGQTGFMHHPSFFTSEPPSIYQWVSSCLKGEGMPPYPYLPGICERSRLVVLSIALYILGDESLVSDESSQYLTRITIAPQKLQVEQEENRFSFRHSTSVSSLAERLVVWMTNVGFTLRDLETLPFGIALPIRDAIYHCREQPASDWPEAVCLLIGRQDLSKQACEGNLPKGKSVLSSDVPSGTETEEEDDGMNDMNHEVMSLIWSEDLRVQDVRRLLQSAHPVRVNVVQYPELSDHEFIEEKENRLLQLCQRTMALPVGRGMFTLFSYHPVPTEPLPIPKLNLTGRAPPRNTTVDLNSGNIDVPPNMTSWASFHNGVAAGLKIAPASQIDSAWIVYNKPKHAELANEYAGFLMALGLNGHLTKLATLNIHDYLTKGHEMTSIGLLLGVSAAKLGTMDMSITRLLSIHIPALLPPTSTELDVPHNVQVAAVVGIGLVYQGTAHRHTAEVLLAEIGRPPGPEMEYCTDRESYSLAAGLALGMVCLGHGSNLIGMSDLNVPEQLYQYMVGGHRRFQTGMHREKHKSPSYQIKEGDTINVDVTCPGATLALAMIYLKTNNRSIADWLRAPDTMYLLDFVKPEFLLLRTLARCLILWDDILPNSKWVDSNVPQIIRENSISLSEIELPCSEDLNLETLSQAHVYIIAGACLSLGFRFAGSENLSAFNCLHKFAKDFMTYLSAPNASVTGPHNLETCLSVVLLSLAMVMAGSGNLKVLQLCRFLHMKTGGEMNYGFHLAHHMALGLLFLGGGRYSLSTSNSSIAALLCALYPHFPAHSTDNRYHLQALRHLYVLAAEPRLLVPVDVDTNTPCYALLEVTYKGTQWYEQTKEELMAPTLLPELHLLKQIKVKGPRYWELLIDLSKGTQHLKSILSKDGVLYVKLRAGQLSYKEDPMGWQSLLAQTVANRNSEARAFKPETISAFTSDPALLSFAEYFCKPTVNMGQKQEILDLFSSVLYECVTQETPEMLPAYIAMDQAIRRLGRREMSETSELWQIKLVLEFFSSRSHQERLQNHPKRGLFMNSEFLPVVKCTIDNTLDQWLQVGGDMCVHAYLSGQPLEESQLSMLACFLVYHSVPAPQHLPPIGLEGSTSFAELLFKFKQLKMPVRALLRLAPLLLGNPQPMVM

Target: T1, endogenous RECQ4 (human (endogenous in HEK293)) (UniProt O94761)
T1 sequence: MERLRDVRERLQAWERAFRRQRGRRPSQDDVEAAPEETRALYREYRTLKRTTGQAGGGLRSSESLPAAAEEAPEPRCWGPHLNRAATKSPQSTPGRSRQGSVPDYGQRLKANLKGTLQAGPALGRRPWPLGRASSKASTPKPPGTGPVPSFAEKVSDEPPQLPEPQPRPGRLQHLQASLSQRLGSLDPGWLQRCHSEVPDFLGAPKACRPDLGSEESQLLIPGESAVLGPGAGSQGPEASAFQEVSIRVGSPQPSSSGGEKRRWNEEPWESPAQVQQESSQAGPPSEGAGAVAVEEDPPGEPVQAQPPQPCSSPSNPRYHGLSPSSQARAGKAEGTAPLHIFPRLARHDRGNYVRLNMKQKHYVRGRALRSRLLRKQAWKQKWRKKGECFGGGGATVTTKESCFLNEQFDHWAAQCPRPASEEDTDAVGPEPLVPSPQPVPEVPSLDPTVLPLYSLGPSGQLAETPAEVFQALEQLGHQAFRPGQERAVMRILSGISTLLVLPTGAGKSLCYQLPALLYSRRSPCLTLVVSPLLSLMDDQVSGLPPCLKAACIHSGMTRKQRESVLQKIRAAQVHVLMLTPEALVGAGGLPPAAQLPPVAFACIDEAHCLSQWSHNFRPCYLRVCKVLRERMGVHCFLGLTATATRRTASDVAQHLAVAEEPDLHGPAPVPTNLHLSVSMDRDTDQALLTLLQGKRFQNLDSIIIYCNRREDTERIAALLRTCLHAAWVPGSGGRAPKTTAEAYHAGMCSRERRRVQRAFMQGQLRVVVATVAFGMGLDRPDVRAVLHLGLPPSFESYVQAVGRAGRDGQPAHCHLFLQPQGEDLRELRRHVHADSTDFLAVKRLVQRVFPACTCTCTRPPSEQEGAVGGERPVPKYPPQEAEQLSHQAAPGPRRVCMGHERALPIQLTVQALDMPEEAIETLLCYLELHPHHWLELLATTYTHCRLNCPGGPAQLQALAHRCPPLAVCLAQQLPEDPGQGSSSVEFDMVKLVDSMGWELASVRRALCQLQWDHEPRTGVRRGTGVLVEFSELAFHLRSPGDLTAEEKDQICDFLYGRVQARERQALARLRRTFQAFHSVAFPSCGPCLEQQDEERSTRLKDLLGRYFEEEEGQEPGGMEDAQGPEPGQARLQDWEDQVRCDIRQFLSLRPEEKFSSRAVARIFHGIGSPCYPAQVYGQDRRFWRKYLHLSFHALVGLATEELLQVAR
Assay: co-IP; endogenous RECQ4 immunopurified with rabbit anti-RECQ4 antibody on protein A agarose from whole-cell extracts of parental HEK293 cells at time points after release from nocodazole; western blot (Fig. 3b)

APC1 (from UniProt Q9H1A4 1-1944)
binding: binds
